Measurements as given in paper PMC10502815.
No constants are given. Whether binding was seen depends on the method and setting. Binding seen in cells or lysates may run through a third protein. Some binding calls cover weakened binding; strength is not graded here. For some assays here: Tags and fused reporters may be left off the sequences shown.

The chains behind the UniProt entries cited, without tags or fusion partners. Where a name states a change or a piece, a line headed by the entry shows the natural chain unless it says otherwise.
UniProt Q07817: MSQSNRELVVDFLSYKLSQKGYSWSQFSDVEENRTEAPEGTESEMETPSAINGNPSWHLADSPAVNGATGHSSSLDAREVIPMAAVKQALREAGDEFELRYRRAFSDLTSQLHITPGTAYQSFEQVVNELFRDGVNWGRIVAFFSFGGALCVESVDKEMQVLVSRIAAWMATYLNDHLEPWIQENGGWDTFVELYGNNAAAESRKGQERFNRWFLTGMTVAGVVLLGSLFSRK

B1: ubiquitin specific peptidase 13 (USP13), Myc-tagged (enzyme, UniProt Q92995 1-863)
chain: MQRRGALFGMPGGSGGRKMAAGDIGELLVPHMPTIRVPRSGDRVYKNECAFSYDSPNSEGGLYVCMNTFLAFGREHVERHFRKTGQSVYMHLKRHVREKVRGASGGALPKRRNSKIFLDLDTDDDLNSDDYEYEDEAKLVIFPDHYEIALPNIEELPALVTIACDAVLSSKSPYRKQDPDTWENELPVSKYANNLTQLDNGVRIPPSGWKCARCDLRENLWLNLTDGSVLCGKWFFDSSGGNGHALEHYRDMGYPLAVKLGTITPDGADVYSFQEEEPVLDPHLAKHLAHFGIDMLHMHGTENGLQDNDIKLRVSEWEVIQESGTKLKPMYGPGYTGLKNLGNSCYLSSVMQAIFSIPEFQRAYVGNLPRIFDYSPLDPTQDFNTQMTKLGHGLLSGQYSKPPVKSELIEQVMKEEHKPQQNGISPRMFKAFVSKSHPEFSSNRQQDAQEFFLHLVNLVERNRIGSENPSDVFRFLVEERIQCCQTRKVRYTERVDYLMQLPVAMEAATNKDELIAYELTRREAEANRRPLPELVRAKIPFSACLQAFSEPENVDDFWSSALQAKSAGVKTSRFASFPEYLVVQIKKFTFGLDWVPKKFDVSIDMPDLLDINHLRARGLQPGEEELPDISPPIVIPDDSKDRLMNQLIDPSDIDESSVMQLAEMGFPLEACRKAVYFTGNMGAEVAFNWIIVHMEEPDFAEPLTMPGYGGAASAGASVFGASGLDNQPPEEIVAIITSMGFQRNQAIQALRATNNNLERALDWIFSHPEFEEDSDFVIEMENNANANIISEAKPEGPRVKDGSGTYELFAFISHMGTSTMSGHYICHIKKEGRWVIYNDHKVCASERPPKDLGYMYFYRRIPS

Columns and labels:
[1] = target: T1, ubiquitin specific peptidase 13 (USP13), endogenous (human (endogenous in HK-2)) (UniProt Q92995); assay: co-IP; endogenous proteins of HK-2 cells; IP buffer pH 7.5 (50 mM Tris-base, 150 mM NaCl, 2 mM EGTA, 25 mM NaF, 25 mM β-sodium glycerophosphate); protein A/G Plus-agarose and primary antibody, IgG as negative control; Western blot
T1 sequence: B1 chain

[2] = target: BCL2 like 1 (Bcl-XL), Flag-tagged (UniProt Q07817); assay: co-IP; HEK293T co-transfected with USP13-Myc and Bcl-XL-Flag, 10 µM MG-132 for 12 h; lysis in 1% NP-40 buffer pH 8.0 (25 mM Tris-base, 150 mM NaCl, 10% glycerol); 500 µg lysate with anti-Flag beads at 4 °C overnight; anti-Myc blot

Row | Molecule | binding [1] | binding [2]
1 | BCL2 like 1 (Bcl-XL), endogenous (from UniProt Q07817-1 1-233) | binds | –
2 | B1 | – | binds
